Measurements as given in patent US8758781B2, “Tissue scaffolds derived from forestomach extracellular matrix” (Mesynthes Ltd., priority 2008, dated 2014).

Test: Total GAGs, Blyscan dye-binding assay (with or without heparan lyase digestion)

## Heparan sulfate
Lyase treatment: 24 hours
  Total GAGs by Blyscan assay: 15 µg/mL
Lyase treatment: 48 hours
  Total GAGs by Blyscan assay: 13 µg/mL
Lyase treatment: Untreated
  Total GAGs by Blyscan assay: 52 µg/mL
